Measured values: publication PMC7862700
Only a part is listed here, and it is no random draw. At the low end of the ranking, values are background and their order means little.

Molecular target: SPI1 (UniProt P17947)
Assay: DAPPL (digital affinity profiling via proximity ligation, sequencing)
Details: 10 mM Tris-HCl pH 7.5, 50 mM NaCl, 1 mM DTT, 4% glycerol, room temperature, 30 min; GST-TFs on glutathione beads, 16-mer random dsDNA library, 0.1% …; high values mean tight binding; double strand, one strand shown; scale: fold enrichment (6-mer frequency, TF over GST control)

Sequence	binding signal
AGAAAA	1.11
TAAGAC	0.902
GTCAAA	0.953
ACGCGC	0.936
TAGGTC	0.927
GCGCCG	0.882
TTTCAA	1.32
CGGCAA	0.892
AGAATA	1
TCCAAA	1.12
AAAGCC	0.946
GCGGCT	0.919
TGCCGG	0.94
AGAACA	0.998
CTAAGG	0.919
TGGGCG	0.941
ACATAG	0.997
TCATAA	1.06
GTGCTG	0.946
TACGGT	0.993

Sequence	binding signal
GCTTAC	1.12
ACTCAG	0.978
GCCGTC	0.921
ACGCAC	1.03
CATCCA	0.938
GCTCTA	1.04
CTAGTG	0.95
TGCGAA	1.26
ATGGGG	1.11
TTCATG	1.32
CACCTC	0.999
GGCATA	0.876
AAGGCC	0.91
TTGAAG	0.903
ACGGTA	0.916
AGCAGA	0.994
GTTGTC	0.876
CAAAAG	1.08
GTTGAA	0.854

Three records drawn at random from the list so far:
Sequence	binding signal
TGCGAA	1.26
GCTTAC	1.12
ACTCAG	0.978
